# The other results are listed elsewhere or left out. Shown are side measurements of this screen, not its main read-out; they come without a call. Most of these compounds were active or inconclusive in the main read-out, so they are no random draw.
# Assay: Assay for General Anesthetic Phenotype in Xenopus Tadpoles
# Details: startle-response immobility, 1 h, measured here: 24 h immobility, toxicity/death, at 10 µM
# Excerpt: Anesthetic development has remained a largely empirical process. There are growing concerns about the cognitive effects of known general anesthetics and acceleration of the onset of neurodegenerative disease. The compounds' toxicity and multiple specific binding targets in the mammalian brain [4] has made them less attractive as drug leads. This assay was designed for the in vivo follow-up testing of compounds in tadpoles. References: [1] S.L. Bianchi, T. Tran, C. Liu, S. Lin, Y. Li, J.M. Keller, R.G. Eckenhoff, and M.F. Eckenhoff, Brain and behavior changes in 12-month-old Tg2576 and nontransgenic mice exposed to anesthetics. Neurobiol Aging 29 (2008) 1002-10. Z. Xie, Y. Dong, U. Maeda, R.D. Moir, W. Xia, D.J. Culley, G. Crosby, and R.E. Tanzi, The inhalation anesthetic isoflurane induces a vicious cycle of apoptosis and amyloid beta-protein accumulation. J Neurosci 27 (2007) 1247-54. P. Honegger, and J.M. Matthieu, Selective toxicity of the general anesthetic propofol for GABAergic neurons in rat brain cell cultures. J Neurosci Res 45 (1996) 631-6. M.F. Eckenhoff, K. Chan, and R.G. Eckenhoff, Multiple specific binding targets for inhaled anesthetics in the mammalian brain. J Pharmacol Exp Ther 300 (2002) 172-9. C.A. Butts, J. Xi, G. Brannigan, A.A. Saad, S.P. Venkatachalan, R.A. Pearce, M.L. Klein, R.G. Eckenhoff, and I.J. Dmochowski, Identification of a fluorescent general anesthetic, 1-aminoanthracene. Proc Natl Acad Sci U S A 106 (2009) 6501-6. W.A. Lea, J. Xi, A. Jadhav, L. Lu, C.P. Austin, A. Simeonov, and R.G. Eckenhoff, A high-throughput approach for identification of novel general anesthetics. PLoS One 4 (2009) e7150.
# Pre-limb bud Xenopus tadpoles were obtained in large batches from Nasco, Inc. Batches of 10 tadpoles were placed in 20 mm Petri dishes with approximately 20 ml of pond water ("pond water" is approximately a 20-fold dilution of Ringers saline solution). Compounds were added to the pond water from DMSO stock to obtain 100, 10 and 1 microM concentrations. Tadpoles were then incubated with these solutions for 1 hour, and then scored for "anesthesia". Anesthesia in this case is lack of movement in response to a sharp tap on the Petri dish lid, i.e., a lack of startle response. This correlates well to the loss of righting reflex in rodents and the loss of consciousness in humans. The pond water is then changed, and the return of a startle response is monitored for 24 hours. Immobility at 24 hours is considered death.
row,SMILES,immobility
1,O=C(Cn1nc(C2CCCCC2)ccc1=O)NCCc1ccccc1,5%
2,Cc1cccc(-c2ccc(=O)n(CC(=O)NCCc3ccccc3)n2)c1,5%
3,O=C(Cn1nc(-c2ccccc2)ccc1=O)NCCc1ccccc1,5%
4,COc1cccc(-c2ccc(=O)n(CC(=O)NCCc3ccccc3)n2)c1,10%

# Source: PubChem BioAssay AID624098 (National Center for Advancing Translational Sciences (NCATS), 2012)
